{"source": "patent US5776955A", "about": "“Use of unsubstituted and substituted n-(pyrrol-1-yl)pyridinamines as anticonvulsant agents” (Hoechst Marion Roussel, Inc., priority 1996, dated 1998)", "origin": "cited, not measured here", "test_system": "membrane sodium channels", "conditions": "Willow and Catterall, 1982; Olsen, 1986; cited from earlier work", "note": "For at least one compound, name, drawing or mass did not settle the structure."}
{"smiles": "O=C1NC(=O)C(c2ccccc2)(c2ccccc2)N1", "note": "[Diphenylhydantoin]", "values": [{"measurement": "allosteric inhibition of [^3 H]batrachotoxin binding", "value": "allosterically inhibit the binding of [^3 H]batrachotoxin to membrane sodium channels"}]}
